Source: PMC5515827
No constants are given. Whether binding was seen depends on the method and setting. In cells and extracts the contact can be indirect. A result given as binding can be weak or reduced; the word gives no strength.

Experiments:
[1] = target: Flag-tagged truncated VP2, hypervariable region 211-331aa (infectious bursal disease virus strain Lx); assay: co-IP; HEK293T cells transfected with full-length pRK5-flag-vp2 (WT), truncated mutants or empty vector; lysates precipitated with anti-Flag monoclonal antibody, blotted with anti-ORAOV1 (endogenous ORAOV1)
[2] = target: Flag-tagged truncated VP2, conserved C-terminal domain 331-452aa (infectious bursal disease virus strain Lx); assay: as above

B1: endogenous human ORAOV1 (protein, UniProt Q8WV07 1-137)
chain: MAGSQDIFDAIVMADERFHGEGYREGYEEGSSLGVMEGRQHGTLHGAKIGSEIGCYQGFAFAWKCLLHSCTTEKDSRKMKVLESLIGMIQKFPYDDPTYDKLHEDLDKIRGKFKQFCSLLNVQPDFKISAEGSGLSF
In the case of B1, the binding [1] is reported as “binds” and the binding [2] is reported as “binds”.
